These results are taken from PubChem BioAssay AID256 (DTP/NCI, 2004).

The experiment relates to CD2F1 mice, L1210 leukemia ip, survival T/C. Description: NCI In Vivo Anticancer Drug Screen. Data for tumor model L1210 Leukemia (intraperitoneal) in CD2F1 (CDF1) mice. Conditions: higher T/C = longer survival. The method in brief: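 Mice carrying a transplanted tumor received test compound or vehicle alone. The value is the measurement in the treated group divided by that in the vehicle-treated control group.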

Setting [1] is: T/C endpoint: mean survival time, dose: 100.0 mg/kg/injection, schedule: Q04DX002 (ip), vehicle: saline with Tween-80.
Setting [2] is: T/C endpoint: mean survival time, dose: 400.0 mg/kg/injection, schedule: Q04DX002 (ip), vehicle: saline with Tween-80.
[3] abbreviates: T/C endpoint: mean survival time, dose: 25.0 mg/kg/injection, schedule: Q04DX002 (ip), vehicle: saline with Tween-80.
The mark [4] stands for this setting: T/C endpoint: mean survival time, dose: 400.0 mg/kg/injection, schedule: Q04DX003 (ip), vehicle: saline with Tween-80.
Setting [5] is: T/C endpoint: mean survival time, dose: 400.0 mg/kg/injection, schedule: Q04DX003 (ip), vehicle: saline.

Each structure is given as a SMILES string. The list does not hold the whole screen: it is rich in T/C values a quarter to a half above the control, in often repeated tests (any T/C) and in doses without a T/C. Further doses and runs are listed elsewhere. T/C is the treated group as % of the vehicle group. Some doses have a count of surviving animals in place of a T/C: the source holds a T/C of zero for them, seemingly a mark for toxic or unscored doses. Some doses without a T/C left all or most animals alive at the check, yet need not have been tolerated: survival well below the control is almost never listed, so the zero probably covers shortened survival too. Counts of survivors are from the toxicity check (mostly the fifth day) where no day follows; animals may have died later. Schedules are NCI's codes, read here as Q, the interval in days (D) or hours (H), X, the number of doses. Where survival is the endpoint, this PubChem deposit counts one and a half times the control or more as active, and values a quarter to a half above the control carry no call in these data; other NCI protocols may use other cut-offs. Some entries were tested several times; the results are listed from low to high. Additions like (4×) give the number of equal values in this list.

In the case of `Cc1cccc2c1NC(=O)C2=O`, the survivor count was 3 of 3 (T/C endpoint: median survival time, dose: 50.0 mg/kg/injection, schedule: Q04DX002 (ip), vehicle: saline with Tween-80) and 3 of 3 (T/C endpoint: median survival time, dose: 200.0 mg/kg/injection, schedule: Q04DX002 (ip), vehicle: saline with Tween-80).

For `CN(C)CCOc1ccc2c(c1)C/C(=C/c1ncc([N+](=O)[O-])n1C)C2=O`, the survivor count (T/C endpoint: mean survival time, dose: 200.0 mg/kg/injection, schedule: Q01DX009 (ip), vehicle: saline with Tween-80) is recorded as 6 of 6.

With `COc1ccc(NC(=O)Oc2ccc(C3CCCCC3)cc2)cc1`, the survivor count is recorded as 3 of 3 under setting [1] and 3 of 3 under setting [2].

For the molecule `CC[C@@]1(O)C(=O)OCc2c1cc1n(c2=O)Cc2cc3cc(O)ccc3nc2-1`, the T/C reads like this: (T/C endpoint: mean survival time, dose: 1.0 mg/kg/injection, schedule: Q04DX003 (ip), vehicle: other) 133 % of control; (T/C endpoint: mean survival time, dose: 8.0 mg/kg/injection, schedule: Q04DX003 (ip), vehicle: other) 146 % of control; (T/C endpoint: median survival time, dose: 1.5 mg/kg/injection, schedule: Q04DX002 (ip), vehicle: saline) 135 and 142 % of control; (T/C endpoint: median survival time, dose: 3.0 mg/kg/injection, schedule: Q04DX002 (ip), vehicle: saline) 146 (3×), 153, 155, 183 % of control; (T/C endpoint: median survival time, dose: 6.0 mg/kg/injection, schedule: Q04DX002 (ip), vehicle: saline) 135, 146, 162, 170 (2×), 183 % of control; (T/C endpoint: median survival time, dose: 12.0 mg/kg/injection, schedule: Q04DX002 (ip), vehicle: saline) 164, 170, 177, 180, 183, 333 % of control. Also, the T/C reads like this: (T/C endpoint: median survival time, dose: 24.0 mg/kg/injection, schedule: Q04DX002 (ip), vehicle: saline) 147, 170, 174, 200, 230, 264 % of control; (T/C endpoint: median survival time, dose: 24.0 mg/kg/injection, schedule: Q04DX002 (ip), vehicle: suspension in saline) 125 % of control. In addition, the survivor count reads like this: (T/C endpoint: mean survival time, dose: 25.0 mg/kg/injection, schedule: Q04DX003 (ip), vehicle: water) 6 of 6; (T/C endpoint: mean survival time, dose: 50.0 mg/kg/injection, schedule: Q04DX003 (ip), vehicle: water) 4 of 6; (T/C endpoint: mean survival time, dose: 100.0 mg/kg/injection, schedule: Q04DX003 (ip), vehicle: water) 1 of 6; (T/C endpoint: mean survival time, dose: 200.0 mg/kg/injection, schedule: Q04DX003 (ip), vehicle: water) 0 of 6.

For `COc1ccc2c(c1OC(C)=O)-c1cc(OC(C)=O)cc3c1C(C2)NCC3` (centres undefined), the survivor count (T/C endpoint: mean survival time, dose: 50.0 mg/kg/injection, schedule: Q04DX003 (ip), vehicle: saline with Tween-80) is 2 of 6.

As for `CC12CCC(c3cn(C(=O)c4cccnc4)nc31)C2(C)C` (centres undefined), the survivor count (T/C endpoint: mean survival time, dose: 200.0 mg/kg/injection, schedule: Q01DX009 (ip), vehicle: Klucel (hydroxypropylcellulose) (HPC)) is 3 of 3.

As for `CC(=O)CC(C)=O.CC(=O)CC(C)=O.[Pd]`, the survivor count under setting [3] is 0 of 3; the survivor count under setting [1] is recorded as 0 of 3; the survivor count (T/C endpoint: mean survival time, dose: 200.0 mg/kg/injection, schedule: Q04DX002 (ip), vehicle: saline with Tween-80) is reported as 0 of 3; the survivor count under setting [2] is listed as 0 of 3.

Consider `O=C[N]([Hg][Cl])c1ccccc1`, for which the survivor count by setting is: (T/C endpoint: mean survival time, dose: 12.5 mg/kg/injection, schedule: Q01DX009 (ip), vehicle: saline with Tween-80) 0 of 6; (T/C endpoint: mean survival time, dose: 25.0 mg/kg/injection, schedule: Q01DX009 (ip), vehicle: saline with Tween-80) 0 of 6; under setting [3], 0 of 3; (T/C endpoint: mean survival time, dose: 50.0 mg/kg/injection, schedule: Q04DX002 (ip), vehicle: saline with Tween-80) 0 of 3; under setting [1], 0 of 3.

For `CNC(CCNCCc1ccccc1)CNCCc1ccccc1` (centres undefined), for the setting “T/C endpoint: mean survival time, dose: 300.0 mg/kg/injection, schedule: Q01DX001 (ip), vehicle: saline”, the survivor count is reported as 0 of 6.

With `CCCCCCC(=C/c1ccccc1)/C=N/NC(=O)c1ccc[n+](C)c1`, the survivor count is recorded as 0 of 3 (T/C endpoint: mean survival time, dose: 200.0 mg/kg/injection, schedule: Q04DX003 (ip), vehicle: saline with Tween-80) and 0 of 3 under setting [4].

Consider `COC1=C2CCCC2=[N+]2CCCCC2C1` (centres undefined), for which, under setting [5], the survivor count is reported as 0 of 6.

For the molecule `Cc1cc(C)c(C(Cl)(Cl)Cl)c(C)c1Cl`, the survivor count runs as follows: (T/C endpoint: mean survival time, dose: 100.0 mg/kg/injection, schedule: Q01DX009 (ip), vehicle: saline with Tween-80) 1 of 6; (T/C endpoint: mean survival time, dose: 200.0 mg/kg/injection, schedule: Q01DX001 (ip), vehicle: saline with Tween-80) 3 of 6; (T/C endpoint: mean survival time, dose: 400.0 mg/kg/injection, schedule: Q01DX001 (ip), vehicle: saline with Tween-80) 1 of 6.

For `CCCC(=O)Nc1ccc(N)cc1OC`, the survivor count is, setting by setting: (T/C endpoint: mean survival time, dose: 100.0 mg/kg/injection, schedule: Q04DX003 (ip), vehicle: saline sonified) 0 of 6; (T/C endpoint: mean survival time, dose: 200.0 mg/kg/injection, schedule: Q04DX003 (ip), vehicle: saline sonified) 0 of 6; (T/C endpoint: mean survival time, dose: 400.0 mg/kg/injection, schedule: Q04DX003 (ip), vehicle: saline sonified) 0 of 6.

Turning to `CC1NC(C)SC(C)S1` (centres undefined), the survivor count under setting [4] is reported as 2 of 6.

Consider `COC1C(C)OC(OC2CC(C)(O)C(C(=O)O)c3cc4c(c(O)c32)C(=O)c2c(O)cc3c(c2C4=O)OC2OC3(C)C(O)C(N(C)C)C2O)C(OC)C1(C)OC` (centres undefined), for which the survivor count (T/C endpoint: mean survival time, dose: 40.0 mg/kg/injection, schedule: Q01DX009 (ip), vehicle: other) is 5 of 6.

Regarding `O=Cc1ccccc1O`, the survivor count is listed as 3 of 3 (T/C endpoint: mean survival time, dose: 200.0 mg/kg/injection, schedule: Q04DX002 (ip), vehicle: saline) and 0 of 3 (T/C endpoint: mean survival time, dose: 400.0 mg/kg/injection, schedule: Q04DX002 (ip), vehicle: saline).

As to `CCOC(=O)c1cnc2c(cnn2CC)c1N1CCCCC1`, under “T/C endpoint: mean survival time, dose: 400.0 mg/kg/injection, schedule: Q04DX003 (ip), vehicle: Klucel (hydroxypropylcellulose) (HPC)”, the survivor count was 0 of 3.

With `COC(CCCl)c1ccc(Cl)cc1` (centres undefined), under setting [4], the survivor count was 3 of 6.

`ClCCN(CCCl)c1ccc(CCN2CCCCC2)cc1`: the T/C (T/C endpoint: mean survival time, dose: 6.25 mg/kg/injection, schedule: Q01DX009 (ip), vehicle: Klucel (hydroxypropylcellulose) (HPC)) is 128 % of control.

`NC1CCCCC1N.O=C([O-])c1cc(S(=O)(=O)Nc2cc(S(=O)(=O)[O-])cc3cc(S(=O)(=O)[O-])cc(O)c23)ccc1[O-].[Pt+4]`: the T/C (T/C endpoint: median survival time, dose: 0.78 mg/kg/injection, schedule: Q04DX003 (ip), vehicle: saline with Tween-80) was 143 % of control. In addition, the survivor count runs as follows: (T/C endpoint: median survival time, dose: 12.5 mg/kg/injection, schedule: Q04DX003 (ip), vehicle: saline with Tween-80) 6 of 6; (T/C endpoint: median survival time, dose: 25.0 mg/kg/injection, schedule: Q04DX003 (ip), vehicle: saline with Tween-80) 5 of 6; (T/C endpoint: median survival time, dose: 50.0 mg/kg/injection, schedule: Q04DX003 (ip), vehicle: saline with Tween-80) 0 of 6; (T/C endpoint: median survival time, dose: 100.0 mg/kg/injection, schedule: Q04DX003 (ip), vehicle: saline with Tween-80) 0 of 6; (T/C endpoint: median survival time, dose: 200.0 mg/kg/injection, schedule: Q04DX003 (ip), vehicle: saline with Tween-80) 0 of 6.

Turning to `CC(C)(CCC(=O)O)C(=O)O`, under setting [5], the survivor count is on record as 2 of 6.

In the case of `CCOC(=O)Nc1cc(Cl)c2nnn(C(=O)OCC)c2n1`, the survivor count (T/C endpoint: mean survival time, dose: 200.0 mg/kg/injection, schedule: Q01DX005 (ip), vehicle: water) is 0 of 6.

As to `Cc1ccn(C)c(=N)c1`, the survivor count (T/C endpoint: mean survival time, dose: 400.0 mg/kg/injection, schedule: Q01DX009 (ip), vehicle: saline sonified) is reported as 2 of 6.
